Assay results as given in the supplement of paper PMC3334620.
Over roughly 33,000 sequences, “E-score (-0.5 to 0.5)” has its median near -0.016; the highest 2% begin near 0.3. The list shows a part of the results.

Each sequence was assayed against T1, Yer184c (UniProt P39961) (assay: PBM E-score (8-mer binding enrichment) (E-score (-0.5 to 0.5)); higher = stronger / more preferred TF binding). Details: protein concentration: 100 nM; construct: GST-full length.
T1 sequence: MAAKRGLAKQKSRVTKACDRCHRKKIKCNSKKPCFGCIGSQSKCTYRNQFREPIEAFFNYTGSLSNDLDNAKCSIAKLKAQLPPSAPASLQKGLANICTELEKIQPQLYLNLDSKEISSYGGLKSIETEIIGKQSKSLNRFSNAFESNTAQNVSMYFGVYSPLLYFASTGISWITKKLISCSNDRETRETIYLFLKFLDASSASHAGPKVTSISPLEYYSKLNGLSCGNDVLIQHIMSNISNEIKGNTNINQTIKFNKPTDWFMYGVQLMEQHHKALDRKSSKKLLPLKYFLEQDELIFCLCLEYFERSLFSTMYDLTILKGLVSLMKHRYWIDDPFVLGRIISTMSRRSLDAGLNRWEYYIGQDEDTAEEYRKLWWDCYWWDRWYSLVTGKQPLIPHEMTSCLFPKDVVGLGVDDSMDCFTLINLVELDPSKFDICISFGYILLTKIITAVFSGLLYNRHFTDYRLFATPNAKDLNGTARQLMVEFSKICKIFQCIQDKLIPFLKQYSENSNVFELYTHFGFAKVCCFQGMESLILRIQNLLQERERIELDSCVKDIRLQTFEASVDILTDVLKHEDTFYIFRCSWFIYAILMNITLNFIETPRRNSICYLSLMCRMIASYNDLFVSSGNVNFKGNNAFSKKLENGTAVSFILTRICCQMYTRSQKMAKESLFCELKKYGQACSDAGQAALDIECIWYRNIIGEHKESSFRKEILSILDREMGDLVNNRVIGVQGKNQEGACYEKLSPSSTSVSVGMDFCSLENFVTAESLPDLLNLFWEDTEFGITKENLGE
Experimental: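 Universal 'all 10-mer' protein binding microarrays (Agilent AMADID 015681) probed with GST-tagged S. cerevisiae TFs (full-length or DBD) made by in vitro transcription/translation (PURExpress), about 100-200 nM. Bound TF was detected with fluorescent anti-GST. Each ungapped 8-mer (which stands for itself and its reverse complement) is scored by the PBM enrichment score (E-score), a modified Wilcoxon-Mann-Whitney statistic from -0.5 to +0.5, computed with the Universal PBM Analysis Suite. Scale: above 0.35 generally sequence-specific binding.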

Sequence | PBM E-score
TTACTAAA | 0.241
AGACCGGG | 0.179
CCCGGGCA | 0.217
CTCGAATC | -0.0123
AGCGCTAG | -0.079
CTACCTCA | -0.0606
CATGTCCG | 0.0774
ACGCAAGG | 0.036
CACACGCG | -0.0224
CCGGACGA | 0.323
CCTTCAGA | -0.107
ATAACAGA | 0.187
ACCGACTG | 0.0253
AACAAAAC | 0.176
AGGGTTGA | -0.131
AAATCCTT | -0.0289
CACCGGTC | -0.204
CAGTAGGA | -0.141
TACCGGCA | 0.251
ATTACGAC | 0.126
GAGTCCCA | -0.0614
CCCGTTCC | -0.0111
AAACTTAA | 0.237
AGTTAGGG | -0.132
GAGATTCC | 0.0978

Sequence | PBM E-score
AATCTTCC | 0.0694
ATGTTAGG | 0.0113
AGAAGTCT | -0.146
CTACATTA | -0.08
CACAAACA | 0.161
AGAACACC | -0.0272
CCATTAGA | -0.157
ATCTAATG | -0.0371
ACACAAGA | 0.0391
ACAAGCAC | -0.0254
GTGTACGA | 0.00148
AAAAAGTG | -0.00593
CCGGTCGC | 0.221
GCCCAGAC | -0.346
ATAGTGAT | 0.0308
CCTGAAAA | 0.0179
AATAAGTA | 0.051
AGATTTGA | 0.0355
GCGCCCTA | -0.135
GGGGTTCA | -0.309
AGTCCAAC | -0.207
ATCTTTCA | 0.149
AGTCTTGC | 0.00551
TAGAAAGA | -0.2
AATAGGAG | -0.13

Sequence | PBM E-score
GACGCAGC | -0.183
AATTGAAG | 0.0581
AGAAGCGC | 0.0964
ACTAGGAG | -0.115
ACTCTTAC | 0.182
AAGTGTAG | -0.0984
CGGTCCGA | 0.335
CGACACTA | -0.0271
AGAACAAC | -0.0558
CATTTATA | 0.115
GCCGTGGA | 0.0642
AAGCCCTT | -0.199
CATACCCA | -0.077
AGGGGACG | -0.122
CTGGTTCA | -0.00019
CGGTGGAG | -0.0794
CTCAAGCC | -0.0779
GAGAGAGC | -0.193
CGGCCGAA | 0.415
AGCCTTAT | -0.149
GGGATCAA | -0.0278
GACGGACA | 0.121
AGGCCGTG | 0.117
AAGTAATT | 0.186
ATTATTTC | 0.281

As a working copy, part of the list above:
Sequence | PBM E-score
AGTTAGGG | -0.132
GAGATTCC | 0.0978
AATCTTCC | 0.0694
ATGTTAGG | 0.0113
AGAAGTCT | -0.146
CTACATTA | -0.08
CACAAACA | 0.161
AGAACACC | -0.0272
CCATTAGA | -0.157
ATCTAATG | -0.0371
ACACAAGA | 0.0391
ACAAGCAC | -0.0254
GTGTACGA | 0.00148
AAAAAGTG | -0.00593
CCGGTCGC | 0.221
GCCCAGAC | -0.346
ATAGTGAT | 0.0308
CCTGAAAA | 0.0179
AATAAGTA | 0.051
AGATTTGA | 0.0355
GCGCCCTA | -0.135
GGGGTTCA | -0.309
AGTCCAAC | -0.207
ATCTTTCA | 0.149
AGTCTTGC | 0.00551
TAGAAAGA | -0.2
AATAGGAG | -0.13
GACGCAGC | -0.183
AATTGAAG | 0.0581
AGAAGCGC | 0.0964
ACTAGGAG | -0.115
ACTCTTAC | 0.182
AAGTGTAG | -0.0984
CGGTCCGA | 0.335
CGACACTA | -0.0271
AGAACAAC | -0.0558
CATTTATA | 0.115
GCCGTGGA | 0.0642
AAGCCCTT | -0.199
CATACCCA | -0.077
AGGGGACG | -0.122
CTGGTTCA | -0.00019
CGGTGGAG | -0.0794
CTCAAGCC | -0.0779
GAGAGAGC | -0.193
CGGCCGAA | 0.415
AGCCTTAT | -0.149
GGGATCAA | -0.0278
GACGGACA | 0.121
AGGCCGTG | 0.117
AAGTAATT | 0.186
ATTATTTC | 0.281

Next part.

Sequence | PBM E-score
CCTCCCAG | -0.203
CACAACGC | -0.0651
GAATGCGA | 0.0377
CTATCCAG | 0.0923
AGTAGCTA | 0.0971
AGCATACA | 0.0536
GGTAGCAC | -0.282
GTTTCGGA | 0.304
ATTTCAAA | 0.136
AATAGCTG | -0.0614
CACGCGCA | -0.11
GGTGGGAA | -0.13
CCTCCGCC | -0.0659
ATCCTTGA | 0.0411
CGAGATGC | 0.0108
ACCCTCAA | -0.133
GGGACCCA | -0.117
AATTTCCG | 0.406
ATATCAGG | -0.0174
CGCCATGA | -0.155
TACTGTAA | 0.0672
ATTGTCTC | 0.00416
TGAAACCA | 0.181
AGTAGGCG | -0.0424
CTATAGTA | 0.201

Sequence | PBM E-score
CAACTCGA | 0.0102
ACGACTGA | -0.0424
AGTTGATC | -0.0324
ACTGCCAA | 0.0188
AGGAGAAT | 0.0489
AGAATATC | 0.0794
ACGAACGA | 0.0481
AAGGTCTC | -0.11
TTCGCAAA | 0.228
AACCCCTG | -0.354
ATCTAAAC | -0.00512
GCAACGAA | 0.121
AGACGTGA | -0.00097
ATCAATGG | -0.188
CGTCATGC | -0.219
AACTGAGC | -0.0584
CCGATAGG | 0.0592
AGACATGG | -0.129
GTTTGTGA | 0.0746
CATGCGCC | -0.092
CCCAGCGC | -0.136
AATTGCAA | 0.139
ATGACGTC | -0.0365
AATTGATG | 0.222
AACAGGTT | -0.096

Sequence | PBM E-score
CAATCAGC | -0.05
AGTTCATG | 0.187
CCTCGTTC | -0.224
TATTACGA | 0.193
ATATTGAT | 0.21
ATCAAACA | 0.109
AATCCCAA | -0.161
CACACCTA | -0.119
CGGGGCCA | 0.0826
CAATTATG | 0.163
ACTGGCAT | -0.229
ACGCATAT | -0.131
AGGTACTG | -0.0384
GGGACCAC | -0.132
ATTAGACA | 0.0253
AAATTAAC | 0.159
AGCCGATG | 0.131
ACGGAGAT | 0.225
TTTCGAAA | 0.117
ACCGAATC | 0.238
CTGCCACC | -0.305
ACAAGCGC | -0.116
TGTAGACA | 0.0631
CATGATAA | 0.0911
CGGCTCAG | 0.337

Sequence | PBM E-score
CTGTTCTA | 0.0812
ACGCATAG | -0.204
ATCGTGTA | 0.0872
CTCGGAAC | 0.358
ACGCATCT | 0.0571
GCATGTCC | -0.0656
CAGTCGCA | -0.215
CCCGGGTC | 0.202
AGCGCGGC | 0.0107
CGGGTAAA | 0.215
CTACTCTA | 0.0455
CGATTAAA | 0.243
GATCTGAC | -0.0541
ATTTGGTA | 0.188
AAGTGGTA | -0.163
ATTTTTGA | 0.164
AGGGCTCG | -0.143
CCTCACCA | -0.239
AAGAAATG | 0.227
ACCGAGGG | -0.168
GTCGCTAA | 0.013
ATATTATG | 0.261
